Values quoted from earlier work as cited in publication PMC7343282, “Tissue Distribution of Several Series of Cationic Surfactants in Rainbow Trout (Oncorhynchus mykiss) Following Exposure via Water” (Environmental Science & Technology, 2020).

Experiments:
fathead minnows = conditions: cited from earlier work
killifish = conditions: cited from earlier work

CN(C)CCOC(c1ccccc1)c1ccccc1 [diphenhydramine]
Vd, plasma concentration based (fathead minnows): 3.0 L kg^–1 | Vd, plasma concentration based (killifish): 0.32–0.48 L kg^–1
